Test results from PubChem BioAssay AID1570 (National Center for Advancing Translational Sciences (NCATS), 2009).
Values joined by “and” are separate entries in the source; they are usually repeats but may differ in a detail not shown here. Equal entries are not always repeated. The shares of active, inactive and inconclusive entries below differ from those in the screen. Potencies beside an inconclusive call are fits to weak or partial responses and may not hold up. Active and inactive are the calls of the source. The call rests on the fitted dose curve; in most records, active means well fitted inhibition curve with a large enough effect; inconclusive means small, poorly fitted or top-dose-only effect, or effect the other way; inactive means flat fitted curve, though single readings scatter.

Chains of the proteins cited; added tags and fusions are not shown. Lines headed by an entry give the natural chain unless they say otherwise; changes in a name come on top.
UniProt P10828: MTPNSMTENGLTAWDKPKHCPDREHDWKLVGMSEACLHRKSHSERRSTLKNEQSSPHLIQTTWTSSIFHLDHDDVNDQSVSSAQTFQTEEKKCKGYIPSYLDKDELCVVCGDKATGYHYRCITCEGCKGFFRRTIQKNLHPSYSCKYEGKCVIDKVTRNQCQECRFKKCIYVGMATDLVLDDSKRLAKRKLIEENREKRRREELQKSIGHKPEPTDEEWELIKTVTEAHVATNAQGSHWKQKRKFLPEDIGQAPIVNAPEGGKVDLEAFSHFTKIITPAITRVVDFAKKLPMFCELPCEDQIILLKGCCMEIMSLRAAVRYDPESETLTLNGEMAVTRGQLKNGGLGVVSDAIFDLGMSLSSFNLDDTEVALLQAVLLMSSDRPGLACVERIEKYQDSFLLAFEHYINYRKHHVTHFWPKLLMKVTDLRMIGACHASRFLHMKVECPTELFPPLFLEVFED

The compounds below were run against Thyroid hormone receptor beta (Homo sapiens) (UniProt P10828) (assay: Concentration Response Confirmation Assay for Inhibitors of the Interaction of Thyroid Hormone Receptor and Steroid Receptor Coregulator 2, Fluorescein Fluoroprobe). Conditions: TRbeta LBD / fluorescein-SRC2 peptide, fluorescence polarization, 5 h; series mostly up to 92.2 µM; activity, negative = inhibition: at the top concentration.
Source text: NIH Molecular Libraries Probe Production Network [MLPCN] NIH Chemical Genomics Center [NCGC] MLPCN Grant: DK058080 Assay Provider: R. Kip Guy, St. Jude Children's Research Hospital NCGC Assay Overview: Thyroid receptor (TR) regulates many homeostatic processes including basal metabolism, cardiovascular function, body weight, and lipid trafficking. TR modulators are potential therapeutics for obesity and hyperlipidemias but current thyroid analogs have undesirable side effects, particularly cardiac stimulation. To identify inhibitors that specifically prevent the interaction of TR with the steroid receptor coregulator 2 (SRC2), a fluorescence polarization assay was screened (Arnold et al., 2006). This assay detects interaction of the ligand-binding domain of human TRbeta with a fluorescein labeled SRC2 peptide, corresponding to a 20 amino acid region of the nuclear receptor interaction domain. Small molecule inhibitors that block the interaction of TR and SRC2 are detected by a decrease in fluorescence polarization. This assay is a confirmation assay for AID 1469. Arnold, L. A.; Estebanez-Perpina, E.; Togashi, M.; Shelat, A.; Ocasio, C. A.; McReynolds, A. C.; Nguyen, P.; Baxter, J. D.; Fletterick, R. J.; Webb, P.; Guy, R. K. A high-throughput screening method to identify small molecule inhibitors of thyroid hormone receptor coactivator binding. Sci STKE 2006, p 13.
NCGC Assay Protocol Summary: Five uL/well 0.6 uM TRbeta and 20 nM SRC2 Fluorescein in protein buffer (20mM Tris hydrochloride, 100mM NaCl, 10% glycerol, 1mM EDTA, 0.01% NP-40, 1mM DTT, 1uM T3 and 5% DMSO) was dispensed into black solid 1536-well plates (Grenier) using a solenoid-based dispenser. Following transfer of 23 nL compound or DMSO vehicle by a pin tool, the plates were centrifuged 15 s at 1000 RPM and incubated 5 hr at ambient temperature. The plates were read by an Envision (Perkin Elmer) to detect fluorescence polarization of SRC2 Fluorescein (480 nm excitation and 535 nm emission). Data were normalized to unbound (all components except TRbeta) and bound SRC2 Fluorescein controls. In this assay, we provide % activity data for each concentration as well as potencies for the active compounds. Keywords: NIH Roadmap, MLPCN, MLI, MLSMR, qHTS, NCGC, qHTS, thyroid hormone receptor, steroid receptor coactivator, fluorescence polarization

Compound	activity, negative = inhibition	Potency
CC1(C)C(N(O)C(=O)Nc2ccc(Cl)cc2)N(c2ccc(Cl)cc2)C(=O)N1CC(=O)NN (stereo not given)	inactive: -8.24% [at 11.6 µM]	
Cc1c(C#N)c(O)n(CCO)c(=O)c1N=Nc1ccc2c(c1)COC2=O		inconclusive: 39.8 µM [activator, partial curve]
O=c1cc(C23CC4CC(CC(C4)C2)C3)[nH][nH]1	inactive: -7.96%	
Nc1cc(-c2ccccc2)c[nH]c1=O		inconclusive: 44.7 µM [activator, partial curve]
CC(C)(C)N1C(=O)Cc2c1nc(N)c1c(N)nc(N3CCCCC3CO)c(C#N)c21 (stereo not given)		inconclusive: 28.2 µM [inhibitor, partial curve]
Oc1ccc2ccccc2c1/C=N/c1nc2c(s1)CCCC2		active: 31.6 µM
O=C(Nc1nc2ccc(Cl)cc2s1)c1ccc(N2CCCCC2)c([N+](=O)[O-])c1	inactive: -12.4%	
COc1ccc(-c2nc(CS(=O)CC(=O)NCc3ccccn3)c(C)o2)cc1 (stereo not given)		active: 35.5 µM
Cc1cc2ccccc2n1CCNC(=O)C(C)Oc1ccccc1 (stereo not given)	inactive: 7.35% [at 46.3 µM]	
CN1c2ccccc2C(C)(C)C12C=Nc1c(ccc3ccccc13)O2 (stereo not given)		inconclusive: 56.2 µM [inhibitor, single point]
COc1ccc(C(=O)Oc2ccc(C(c3c(C)[nH][nH]c3=O)c3c(C)[nH][nH]c3=O)cc2OC)cc1		inconclusive: 70.8 µM [inhibitor, partial curve, poor fit]
Cc1ccc2c(CC(=O)Nc3c(C(=O)c4ccc(F)cc4)oc4ccccc34)coc2c1C	inactive: 22.5% [at 184 µM]	
COc1cc(NC(C)CCCN)c2ncccc2c1 (stereo not given)	inactive: -6.93% [at 184 µM]	
Cc1cc2c(NC(=O)Nc3ccccc3)cccc2nn1	inactive: -4.49% [at 0.0112 µM]	
CCOc1cc(C(c2c(C)[nH][nH]c2=O)c2c(C)[nH][nH]c2=O)ccc1OS(=O)(=O)c1ccc(C)cc1		inconclusive: 35.5 µM [inhibitor, single point]
Cc1cc(N=Cc2c(O)ccc3ccccc23)no1	inactive: 1.5% [at 0.0112 µM]	
CCCCCCN=CC1=C(O)CC(C)(C)CC1=O	inactive: 4.31% [at 0.0112 µM]	
CCN(CC)S(=O)(=O)c1cccc(N=NC2=C(O)CCCC2=O)c1	inactive: -3.56% [at 0.0112 µM]	
Oc1ccc2ccccc2c1/C=N/c1nccs1		inconclusive: 28.2 µM [inhibitor, full curve]
Cc1[nH][nH]c(=O)c1C(c1ccc(-c2ccc(Cl)c(Cl)c2)o1)c1c(C)[nH][nH]c1=O		inconclusive: 31.6 µM [inhibitor, full curve, poor fit]

Three compounds out of the list, ordered by molecular weight, falling:
Compound	activity, negative = inhibition	Potency
Cc1c(C#N)c(O)n(CCO)c(=O)c1N=Nc1ccc2c(c1)COC2=O		inconclusive: 39.8 µM [activator, partial curve]
Oc1ccc2ccccc2c1/C=N/c1nc2c(s1)CCCC2		active: 31.6 µM
COc1cc(NC(C)CCCN)c2ncccc2c1 (stereo not given)	inactive: -6.93% [at 184 µM]	

More entries follow.

Compound	activity, negative = inhibition	Potency
O=C(NNc1cc(N2CCOCC2)nc(N2CCOCC2)n1)c1ccc(Cl)c(Cl)c1		inconclusive: 0.0003 µM [activator]
O=C(/C=C/c1ccco1)NC(=S)Nc1cc(C(F)(F)F)ccc1N1CCOCC1		inconclusive: 12.6 µM [inhibitor, full curve, poor fit]
Cc1nnc(SCC(=O)Nc2ccc(N(C)C)cc2)[nH]c1=O	inactive: 6.74% [at 184 µM]	
Cn1c(-c2ccc(=O)[nH]c2)nc2ccccc21		inconclusive: 79.4 µM [inhibitor, partial curve, poor fit]
O=c1[nH]c(Nc2ccccc2)cc2ccccc12		active: 25.1 µM
C=CC(=O)OCCOc1ccccc1		active: 50.1 µM
N#Cc1c(NC(=O)c2ccccc2Cl)n(Cc2ccccc2)c2nc3ccccc3nc12		inconclusive: 8.91 µM [inhibitor, partial curve, poor fit]
Cc1ccccc1Nc1cc2ccccc2c(=O)[nH]1		active: 10 µM and active: 28.2 µM
C=CCNC(=O)/C(C#N)=C/c1c(C)nn(-c2ccc(Cl)cc2)c1Cl		inconclusive: 11.2 µM [inhibitor, full curve, poor fit]
COC(=O)/C(=C/Nc1ccc(O)cc1)[N+](=O)[O-]		inconclusive: 35.5 µM [inhibitor, partial curve, poor fit]
Cn1cc(/C=C2\SC(=S)N(NC(=O)c3ccccc3)C2=O)c2ccccc21		inconclusive: 0.224 µM [activator, full curve, poor fit]
CS(=O)(=O)c1ccc(C(=O)OCC(=O)NC(=O)C2CCCCC2)cc1[N+](=O)[O-]		active: 5.01 µM
CC(NC(=O)Nc1ccc(O)cc1)(C(F)(F)F)C(F)(F)F		inconclusive: 39.8 µM [inhibitor, single point]
O=C(O)/C=C/C(=O)Nc1ccc(OC(F)(F)F)cc1Br		active: 50.1 µM
COc1cc(C(c2c(C)[nH][nH]c2=O)c2c(C)[nH][nH]c2=O)ccc1OC(=O)c1cccc(C)c1		inconclusive: 15.8 µM [inhibitor, full curve]
CCC(NC(=O)Nc1ccc(O)cc1)(C(F)(F)F)C(F)(F)F		inconclusive: 7.94e-05 µM [activator, full curve, poor fit]
Cn1c(NNC(=O)c2c(F)cccc2F)cc(=O)n(C)c1=O		inconclusive: 35.5 µM [inhibitor, single point]
COn1c2c(c3c4nonc4ccc31)CCCC2		inconclusive: 22.4 µM [inhibitor, full curve, poor fit]
Oc1ccc2ccccc2c1C=NC12CN3CCN(CN(C3)C1)C2		inconclusive: 7.94 µM [inhibitor, full curve]
Cn1cc[nH]c1=S	inactive: 2.33%	
